{"source": "PubChem BioAssay AID1508597, Cure First, 2020", "aim": "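Knock-downs altering ovarian cancer cell survival with or without PARP inhibitor rucaparib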 (primary screen)", "system": "human ovarian carcinoma lines grown from tumours: OCI-P5x (papillary serous) and OCI-C5x (clear cell)", "reagents": "siRNA pool against human genes, 1.25 pmol siRNA per well", "timing": "72 h or 96 h, depending on the cell culture", "challenge": "rucaparib 20 µM (about IC30) or vehicle, present until read-out", "rucaparib or vehicle": "Rucaparib", "cell line": "OCI-P5x (serous)", "measured": "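Luminescent ATP-based viability assay read 72 or 96 h after transfection, depending on culture, given as normalised percent viability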", "reading the numbers": "viability, normalised: higher = more viable cells remaining", "rule for the call": "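a well counts as a hit if its normalised viability is under 80 percent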", "meaning of the calls": "active = viability under 80%; inactive = viability 80% or more", "note": "Shown is an unselected part of the about 2,100 reagents, under one of the conditions tested. 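Calls flag viability under 80% in either arm, not effects specific to rucaparib; the reference for percent is not stated.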 A number with no mark means an inactive call. Some reagents were tested in more than one well and are listed for each. The record does not give: the 100% reference."}
{"gene knocked down":"NUAK2","PubChem SID":"SID405528596","technical replicate":"1","viability, normalised (%)":"70.5 (active)"}
{"gene knocked down":"NUAK2","PubChem SID":"SID405528596","technical replicate":"2","viability, normalised (%)":"75.7 (active)"}
{"gene knocked down":"NUAK2","PubChem SID":"SID405528596","technical replicate":"3","viability, normalised (%)":"60.5 (active)"}
{"gene knocked down":"DDX18","PubChem SID":"SID405528173","technical replicate":"1","viability, normalised (%)":"56.7 (active)"}
{"gene knocked down":"DDX18","PubChem SID":"SID405528173","technical replicate":"2","viability, normalised (%)":"70.5 (active)"}
{"gene knocked down":"DDX18","PubChem SID":"SID405528173","technical replicate":"3","viability, normalised (%)":"67.9 (active)"}
{"gene knocked down":"RAD18","PubChem SID":"SID405528501","technical replicate":"1","viability, normalised (%)":"51.2 (active)"}
{"gene knocked down":"RAD18","PubChem SID":"SID405528501","technical replicate":"1","viability, normalised (%)":"74.9 (active)"}
{"gene knocked down":"RAD18","PubChem SID":"SID405528501","technical replicate":"2","viability, normalised (%)":"42.6 (active)"}
{"gene knocked down":"RAD18","PubChem SID":"SID405528501","technical replicate":"2","viability, normalised (%)":"62.9 (active)"}
{"gene knocked down":"RAD18","PubChem SID":"SID405528501","technical replicate":"3","viability, normalised (%)":"46.1 (active)"}
{"gene knocked down":"RAD18","PubChem SID":"SID405528501","technical replicate":"3","viability, normalised (%)":"73 (active)"}

In a second layout: entries from further up
NUAK2 [SID405528596], technical replicate 1
- viability, normalised (%): 70.5 (active)

NUAK2 [SID405528596], technical replicate 2
- viability, normalised (%): 75.7 (active)

NUAK2 [SID405528596], technical replicate 3
- viability, normalised (%): 60.5 (active)

More reagents:
{"gene knocked down":"DDX41","PubChem SID":"SID405528188","technical replicate":"1","viability, normalised (%)":"50.2 (active)"}
{"gene knocked down":"DDX41","PubChem SID":"SID405528188","technical replicate":"2","viability, normalised (%)":"58.5 (active)"}
{"gene knocked down":"DDX41","PubChem SID":"SID405528188","technical replicate":"3","viability, normalised (%)":"52.3 (active)"}
{"gene knocked down":"GJA10","PubChem SID":"SID405526816","technical replicate":"1","viability, normalised (%)":"67 (active)"}
{"gene knocked down":"GJA10","PubChem SID":"SID405526816","technical replicate":"2","viability, normalised (%)":"61.8 (active)"}
{"gene knocked down":"GJA10","PubChem SID":"SID405526816","technical replicate":"3","viability, normalised (%)":"53.7 (active)"}
{"gene knocked down":"PRKY","PubChem SID":"SID405528508","technical replicate":"1","viability, normalised (%)":96.2}
{"gene knocked down":"PRKY","PubChem SID":"SID405528508","technical replicate":"2","viability, normalised (%)":83.8}
{"gene knocked down":"PRKY","PubChem SID":"SID405528508","technical replicate":"3","viability, normalised (%)":"65.6 (active)"}
